# Measurements taken from publication PMC6073118.
# No constants are given. Whether binding was seen depends on the method and setting. Binding seen in cells or lysates may run through a third protein. Some results given as binding are weak or reduced against the parent protein; the word gives no strength.
# T1: Tic55 (A. thaliana (endogenous in isolated chloroplasts)) (UniProt Q9SK50)
# T1 sequence: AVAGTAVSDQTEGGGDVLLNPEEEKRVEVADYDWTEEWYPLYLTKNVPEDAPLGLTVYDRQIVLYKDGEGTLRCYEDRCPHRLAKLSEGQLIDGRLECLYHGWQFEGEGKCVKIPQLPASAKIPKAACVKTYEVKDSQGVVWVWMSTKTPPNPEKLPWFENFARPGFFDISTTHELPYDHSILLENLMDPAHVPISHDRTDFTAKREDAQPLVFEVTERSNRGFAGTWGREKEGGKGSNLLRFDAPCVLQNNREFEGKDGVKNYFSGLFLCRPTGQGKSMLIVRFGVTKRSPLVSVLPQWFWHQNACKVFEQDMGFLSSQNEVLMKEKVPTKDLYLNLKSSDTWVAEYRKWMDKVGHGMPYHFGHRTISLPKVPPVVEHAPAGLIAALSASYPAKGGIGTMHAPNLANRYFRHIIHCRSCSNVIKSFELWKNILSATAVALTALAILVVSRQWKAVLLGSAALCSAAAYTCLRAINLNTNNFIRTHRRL
# Target: T1, Tic55 (A. thaliana (endogenous in isolated chloroplasts))
# Experiment: co-IP; isolated chloroplasts of wild-type A. thaliana treated with 0.5 mM DSP (quenched with 50 mM glycine) and hypotonic buffer; membrane pellet solubilised in 25 mM HEPES-KOH pH 8.0, 50 mM KCl, 4% Tx-100, 20% glycerol; IP with anti-Tic55 antibody or preimmune serum and protein A, 4 °C; blots with anti-Tic110, anti-Hsp93, anti-Tic40
binder,measurement,value
"Tic110 (protein, UniProt Q8LPR9 52-1016) SAASSDQLSVSTQAKNPGIHGNKKELTGLQPIVEKMTPPVRLATSAVVLAASLATGYGLGLRLAGSRNIAFGGAAVAGAAGGAVVYALNSAVPEVAAISLHNYVAEFEDPASVTKDDVEKIADRYGVNKGDEAFQAEICDIYCRYVTSVLPTEGQSLKGDEVAKIVKFKNALGIDEPDAAAMHMEIGRRIFRQRLETGEREGDAEQRRAFMRLVYVSALVFGDASSFLLPWKRVLKVTDAQVEIAIRENAKQLYAERLKLVGRDINVENLVDLRKSQLSFKLSDELAEDLFREHTRKVVVENISSALSILKSRTRAAKSLASVVEELEKVLEFNNLLVSLKSHSEADQFARGVGPISLIGDESDFERRMDDLKLLYRAYVTDALSGGRLEENKLVAMSQLRNILGLGKREAEAISVDVTSKSYRKRLANAVSSGDLEAQDSKAKYLQKLCEELHFDAQKAGAIHEEIYRQKLQQCVTDGELSDDNVAALLRLRVMLCIPQQTVDTAHAEICGTIFEKVVRDAISSGVDGYDAETRKSVRKAAHGLRLSRETAMSIASKAVRRVFTNYIRRARAAENRTDSAKELKKMIAFNTLVVTEMVADIKGESSDKAPEEDPVQEKEEDDEDEEWGSLESLRKTRPDKELAEKMGKPGQTEITLKDDLPDRDRIDLYKTYLLYCVTGEVTRIPFGAQITTKRDDSEYLLLNQLGGILGLSSKEIVNIHVGLAEQAFRQQAEVILADGQLTKARVEQLDELQKQVGLPQPQAEKVIKNITTTKMANAIETAVNQGRLNIKQIRELKEANVSLDSMIAVSLREKLFKKTVSDIFSSGTGEFDETEVYQTIPSDLSIDVEKAKRVVHDLAQSRLSNSLVQAVALLRQRNSKGVVLSLNDLLACDKAVPAEPMSWEVSEELSDLYAIYSKSDPKPAPEKVLRLQYLLGIDDSTATALREMEDGALSSAAEEGNFVF",binding,binds
